Measured values: article PMC5297248
These are yes or no findings as the source states them, for the method shown. Some binding calls cover weakened binding; strength is not graded here.

Target: T1, Annexin A5 (human (endogenous in primary trophoblasts)), P08758
T1 chain: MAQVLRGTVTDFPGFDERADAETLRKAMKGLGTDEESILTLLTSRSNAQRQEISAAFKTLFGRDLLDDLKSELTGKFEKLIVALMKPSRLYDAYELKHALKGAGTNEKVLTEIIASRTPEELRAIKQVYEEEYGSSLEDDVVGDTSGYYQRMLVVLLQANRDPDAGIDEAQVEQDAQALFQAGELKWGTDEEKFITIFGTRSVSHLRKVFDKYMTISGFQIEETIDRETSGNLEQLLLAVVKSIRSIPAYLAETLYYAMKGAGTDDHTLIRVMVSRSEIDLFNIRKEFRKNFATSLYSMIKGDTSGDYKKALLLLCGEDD
Assay: far-Western, overlay or dot blot; plasma membrane fractions of cytotrophoblasts or syncytiotrophoblasts resolved by SDS-PAGE and blotted to nitrocellulose; overlaid 16 h at 4 °C with 0.5 μM AnxA5-CF770 alone or with an excess of unlabelled AnxA5 (1 μM); bands that were competed were identified by nanoLC-LTQ Orbitrap mass spectrometry of tryptic digests (Mascot score >30); only the binder purified
Settings: remark: other sources report otherwise

B1: AnxA5-CF770, P08758 1-320 (protein)
chain: MAQVLRGTVTDFPGFDERADAETLRKAMKGLGTDEESILTLLTSRSNAQRQEISAAFKTLFGRDLLDDLKSELTGKFEKLIVALMKPSRLYDAYELKHALKGAGTNEKVLTEIIASRTPEELRAIKQVYEEEYGSSLEDDVVGDTSGYYQRMLVVLLQANRDPDAGIDEAQVEQDAQALFQAGELKWGTDEEKFITIFGTRSVSHLRKVFDKYMTISGFQIEETIDRETSGNLEQLLLAVVKSIRSIPAYLAETLYYAMKGAGTDDHTLIRVMVSRSEIDLFNIRKEFRKNFATSLYSMIKGDTSGDYKKALLLLCGEDD
modifications: here or on the partner: CF770 dye conjugate (site not stated)
- binding: binds
